Laboratory results: patent publication CN116355099A
These are yes or no findings as the source states them, for the method shown. Some results given as binding are weak or reduced against the parent protein; the word gives no strength.

Sequences of proteins named here, by UniProt entry; tags and fusion partners are left off.
UniProt Q9NZQ7: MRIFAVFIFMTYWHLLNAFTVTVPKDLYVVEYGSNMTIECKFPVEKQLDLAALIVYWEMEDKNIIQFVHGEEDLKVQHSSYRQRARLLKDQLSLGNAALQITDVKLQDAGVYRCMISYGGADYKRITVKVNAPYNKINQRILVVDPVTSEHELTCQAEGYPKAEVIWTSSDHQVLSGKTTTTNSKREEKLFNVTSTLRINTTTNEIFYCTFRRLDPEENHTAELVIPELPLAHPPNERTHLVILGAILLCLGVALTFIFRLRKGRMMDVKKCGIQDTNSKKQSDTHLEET

Target: PD-L1-mFc (UniProt Q9NZQ7)
Assay: competition ELISA: PD-1-hFc coated, PD-L1-mFc 1 ug/ml in solution, blocking of PD-L1 binding to PD-1

binding: binds
B1: 抗PD-L1人源化纳米抗体hzF2 (VHH, not shown: a dimerising Fc or GST)
VHH: EVQLVESGGGLVQPGGSLRLSCAASRDSDEGASCMGWFRQAPGKEREGVAIIFNAGERTDYGDSVKGRFTISRDNAKNTLYLQMNSLRAEDTAVYYCATVWCGSWVARSWGQGTLVTVSS
